# Laboratory results taken from US20030152959A1.
# By UniProt entry, the sequences of proteins in these tests, tags left out.
# UniProt P03372: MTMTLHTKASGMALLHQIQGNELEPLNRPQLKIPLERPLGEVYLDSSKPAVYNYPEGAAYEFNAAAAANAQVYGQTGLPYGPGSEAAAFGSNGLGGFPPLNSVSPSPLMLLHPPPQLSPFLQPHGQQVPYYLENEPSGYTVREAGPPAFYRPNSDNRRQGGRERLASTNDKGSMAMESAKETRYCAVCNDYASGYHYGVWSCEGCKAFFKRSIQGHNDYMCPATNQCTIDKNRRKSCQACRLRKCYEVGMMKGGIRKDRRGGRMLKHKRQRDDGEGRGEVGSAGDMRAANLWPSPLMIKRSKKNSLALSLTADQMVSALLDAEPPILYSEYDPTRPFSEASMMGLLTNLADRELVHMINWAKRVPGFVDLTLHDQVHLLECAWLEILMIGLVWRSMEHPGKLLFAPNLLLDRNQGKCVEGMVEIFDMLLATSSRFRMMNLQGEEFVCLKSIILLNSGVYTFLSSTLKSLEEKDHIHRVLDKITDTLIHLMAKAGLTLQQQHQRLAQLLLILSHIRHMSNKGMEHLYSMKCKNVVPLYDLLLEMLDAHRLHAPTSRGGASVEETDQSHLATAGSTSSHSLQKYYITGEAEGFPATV
# Results are given in words; binding and its absence hold for the method and conditions named. Binding seen in cells or lysates may run through a third protein. Some entries that bind do so weakly or less than the wild type. Tags and fused reporters may be left off the sequences shown.
# B1: GST fusion of ERRα1 amino acids 1-173 (protein, human, UniProt P11474 1-173, looked up, not shown: a dimerising Fc or GST)
# chain: MSSQVVGIEPLYIKAEPASPDSPKGSSETETEPPVALAPGPAPTRCLPGHKEEEDGEGAGPGEQGGGKLVLSSLPKRLCLVCGDVASGYHYGVASCEACKAFFKRTIQGSIEYSCPASNECEITKRRRKACQACRFTKCLRVGMLKEGVRLDRVRGGRQKYKRRPEVDPLPFP
# Biological target: estrogen receptor α (ERα) (human) (UniProt P03372)
# Test: GST pull-down of 35S-methionine-labelled ERα with GST-ERRα1 deletion series
binder,measurement,value
B1,binding,binds
